{"source": "paper PMC5433425", "about": "(PeerJ, 2017)", "test_system": "E. coli AG100", "test": "EtBr efflux by real-time fluorometry", "settings": "80 µM", "note": "The source gives many values for each of these; only a part stands here.", "data": [{"compound": "CCCOc1ccc(-c2cc(OCCN3CCNCC3)c3ccccc3n2)cc1", "note": "[PQQ4R, 4-(2-(piperazin-1-yl)ethoxy)-2-(4-propoxyphenyl) quinolone]", "values": [{"measurement": "EtBr fluorescence (Channel Cycling A.530/585hp)", "setting": "cycle 1, without glucose", "value": 11.6793}, {"measurement": "EtBr fluorescence (Channel Cycling A.530/585hp)", "setting": "cycle 2, without glucose", "value": 11.5754}, {"measurement": "EtBr fluorescence (Channel Cycling A.530/585hp)", "setting": "cycle 3, without glucose", "value": 11.468}, {"measurement": "EtBr fluorescence (Channel Cycling A.530/585hp)", "setting": "cycle 4, + glucose", "value": 11.2886}, {"measurement": "EtBr fluorescence (Channel Cycling A.530/585hp)", "setting": "cycle 4, without glucose", "value": 11.3183}, {"measurement": "EtBr fluorescence (Channel Cycling A.530/585hp)", "setting": "cycle 5, + glucose", "value": 10.7898}, {"measurement": "EtBr fluorescence (Channel Cycling A.530/585hp)", "setting": "cycle 5, without glucose", "value": 11.1947}, {"measurement": "EtBr fluorescence (Channel Cycling A.530/585hp)", "setting": "cycle 6, + glucose", "value": 10.0917}, {"measurement": "EtBr fluorescence (Channel Cycling A.530/585hp)", "setting": "cycle 6, without glucose", "value": 11.1944}, {"measurement": "EtBr fluorescence (Channel Cycling A.530/585hp)", "setting": "cycle 7, + glucose", "value": 9.745}, {"measurement": "EtBr fluorescence (Channel Cycling A.530/585hp)", "setting": "cycle 7, without glucose", "value": 11.3}, {"measurement": "EtBr fluorescence (Channel Cycling A.530/585hp)", "setting": "cycle 8, + glucose", "value": 9.179}, {"measurement": "EtBr fluorescence (Channel Cycling A.530/585hp)", "setting": "cycle 8, without glucose", "value": 11.1059}, {"measurement": "EtBr fluorescence (Channel Cycling A.530/585hp)", "setting": "cycle 9, without glucose", "value": 11.2636}, {"measurement": "EtBr fluorescence (Channel Cycling A.530/585hp)", "setting": "cycle 10, without glucose", "value": 10.8414}, {"measurement": "EtBr fluorescence (Channel Cycling A.530/585hp)", "setting": "cycle 11, without glucose", "value": 11.0568}, {"measurement": "EtBr fluorescence (Channel Cycling A.530/585hp)", "setting": "cycle 12, without glucose", "value": 10.9275}, {"measurement": "EtBr fluorescence (Channel Cycling A.530/585hp)", "setting": "cycle 13, without glucose", "value": 11.0785}, {"measurement": "EtBr fluorescence (Channel Cycling A.530/585hp)", "setting": "cycle 14, without glucose", "value": 10.9901}, {"measurement": "EtBr fluorescence (Channel Cycling A.530/585hp)", "setting": "cycle 15, without glucose", "value": 11.0607}, {"measurement": "EtBr fluorescence (Channel Cycling A.530/585hp)", "setting": "cycle 16, without glucose", "value": 10.956}, {"measurement": "EtBr fluorescence (Channel Cycling A.530/585hp)", "setting": "cycle 17, without glucose", "value": 10.8466}, {"measurement": "EtBr fluorescence (Channel Cycling A.530/585hp)", "setting": "cycle 18, without glucose", "value": 11.0904}, {"measurement": "EtBr fluorescence (Channel Cycling A.530/585hp)", "setting": "cycle 19, without glucose", "value": 11.0539}, {"measurement": "EtBr fluorescence (Channel Cycling A.530/585hp)", "setting": "cycle 20, without glucose", "value": 10.9923}, {"measurement": "EtBr fluorescence (Channel Cycling A.530/585hp)", "setting": "cycle 21, without glucose", "value": 11.0261}, {"measurement": "EtBr fluorescence (Channel Cycling A.530/585hp)", "setting": "cycle 22, without glucose", "value": 11.0073}, {"measurement": "EtBr fluorescence (Channel Cycling A.530/585hp)", "setting": "cycle 23, without glucose", "value": 10.9912}, {"measurement": "EtBr fluorescence (Channel Cycling A.530/585hp)", "setting": "cycle 24, without glucose", "value": 10.9329}, {"measurement": "EtBr fluorescence (Channel Cycling A.530/585hp)", "setting": "cycle 25, without glucose", "value": 11.0553}, {"measurement": "EtBr fluorescence (Channel Cycling A.530/585hp)", "setting": "cycle 26, without glucose", "value": 11.0163}, {"measurement": "EtBr fluorescence (Channel Cycling A.530/585hp)", "setting": "cycle 27, without glucose", "value": 10.8243}, {"measurement": "EtBr fluorescence (Channel Cycling A.530/585hp)", "setting": "cycle 28, without glucose", "value": 10.8258}, {"measurement": "EtBr fluorescence (Channel Cycling A.530/585hp)", "setting": "cycle 29, without glucose", "value": 10.6446}, {"measurement": "EtBr fluorescence (Channel Cycling A.530/585hp)", "setting": "cycle 30, without glucose", "value": 10.8079}, {"measurement": "EtBr fluorescence (Channel Cycling A.530/585hp)", "setting": "cycle 31, without glucose", "value": 10.6956}, {"measurement": "EtBr fluorescence (Channel Cycling A.530/585hp)", "setting": "cycle 32, without glucose", "value": 10.7933}, {"measurement": "EtBr fluorescence (Channel Cycling A.530/585hp)", "setting": "cycle 33, without glucose", "value": 10.482}, {"measurement": "EtBr fluorescence (Channel Cycling A.530/585hp)", "setting": "cycle 34, without glucose", "value": 10.487}, {"measurement": "EtBr fluorescence (Channel Cycling A.530/585hp)", "setting": "cycle 35, without glucose", "value": 10.51}, {"measurement": "EtBr fluorescence (Channel Cycling A.530/585hp)", "setting": "cycle 36, without glucose", "value": 10.4202}, {"measurement": "EtBr fluorescence (Channel Cycling A.530/585hp)", "setting": "cycle 37, without glucose", "value": 10.3049}, {"measurement": "EtBr fluorescence (Channel Cycling A.530/585hp)", "setting": "cycle 38, without glucose", "value": 10.3401}, {"measurement": "EtBr fluorescence (Channel Cycling A.530/585hp)", "setting": "cycle 39, without glucose", "value": 10.1025}, {"measurement": "EtBr fluorescence (Channel Cycling A.530/585hp)", "setting": "cycle 40, without glucose", "value": 10.1044}, {"measurement": "EtBr fluorescence (Channel Cycling A.530/585hp)", "setting": "cycle 41, without glucose", "value": 10.038}, {"measurement": "EtBr fluorescence (Channel Cycling A.530/585hp)", "setting": "cycle 42, without glucose", "value": 10.0003}, {"measurement": "EtBr fluorescence (Channel Cycling A.530/585hp)", "setting": "cycle 43, without glucose", "value": 9.817}, {"measurement": "EtBr fluorescence (Channel Cycling A.530/585hp)", "setting": "cycle 44, without glucose", "value": 9.3904}, {"measurement": "EtBr fluorescence (Channel Cycling A.530/585hp)", "setting": "cycle 45, + glucose", "value": 4.671}, {"measurement": "EtBr fluorescence (Channel Cycling A.530/585hp)", "setting": "cycle 45, without glucose", "value": 9.635}, {"measurement": "EtBr fluorescence (Channel Cycling A.530/585hp)", "setting": "cycle 46, + glucose", "value": 4.673}, {"measurement": "EtBr fluorescence (Channel Cycling A.530/585hp)", "setting": "cycle 46, without glucose", "value": 9.453}, {"measurement": "EtBr fluorescence (Channel Cycling A.530/585hp)", "setting": "cycle 47, + glucose", "value": 4.6309}, {"measurement": "EtBr fluorescence (Channel Cycling A.530/585hp)", "setting": "cycle 47, without glucose", "value": 9.538}, {"measurement": "EtBr fluorescence (Channel Cycling A.530/585hp)", "setting": "cycle 48, + glucose", "value": 4.562}, {"measurement": "EtBr fluorescence (Channel Cycling A.530/585hp)", "setting": "cycle 48, without glucose", "value": 9.52}, {"measurement": "EtBr fluorescence (Channel Cycling A.530/585hp)", "setting": "cycle 49, + glucose", "value": 4.578}, {"measurement": "EtBr fluorescence (Channel Cycling A.530/585hp)", "setting": "cycle 49, without glucose", "value": 9.39}, {"measurement": "EtBr fluorescence (Channel Cycling A.530/585hp)", "setting": "cycle 50, + glucose", "value": 4.519}, {"measurement": "EtBr fluorescence (Channel Cycling A.530/585hp)", "setting": "cycle 50, without glucose", "value": 9.396}, {"measurement": "EtBr fluorescence (Channel Cycling A.530/585hp)", "setting": "cycle 51, + glucose", "value": 4.498}, {"measurement": "EtBr fluorescence (Channel Cycling A.530/585hp)", "setting": "cycle 51, without glucose", "value": 9.2188}, {"measurement": "EtBr fluorescence (Channel Cycling A.530/585hp)", "setting": "cycle 52, + glucose", "value": 4.498}, {"measurement": "EtBr fluorescence (Channel Cycling A.530/585hp)", "setting": "cycle 52, without glucose", "value": 9.1371}, {"measurement": "EtBr fluorescence (Channel Cycling A.530/585hp)", "setting": "cycle 53, + glucose", "value": 4.422}, {"measurement": "EtBr fluorescence (Channel Cycling A.530/585hp)", "setting": "cycle 53, without glucose", "value": 9.1784}, {"measurement": "EtBr fluorescence (Channel Cycling A.530/585hp)", "setting": "cycle 54, + glucose", "value": 4.425}, {"measurement": "EtBr fluorescence (Channel Cycling A.530/585hp)", "setting": "cycle 54, without glucose", "value": 9.1862}, {"measurement": "EtBr fluorescence (Channel Cycling A.530/585hp)", "setting": "cycle 55, + glucose", "value": 4.3}, {"measurement": "EtBr fluorescence (Channel Cycling A.530/585hp)", "setting": "cycle 55, without glucose", "value": 9.022}, {"measurement": "EtBr fluorescence (Channel Cycling A.530/585hp)", "setting": "cycle 56, + glucose", "value": 4.316}, {"measurement": "EtBr fluorescence (Channel Cycling A.530/585hp)", "setting": "cycle 56, without glucose", "value": 8.907}, {"measurement": "EtBr fluorescence (Channel Cycling A.530/585hp)", "setting": "cycle 57, + glucose", "value": 4.269}, {"measurement": "EtBr fluorescence (Channel Cycling A.530/585hp)", "setting": "cycle 57, without glucose", "value": 9.017}, {"measurement": "EtBr fluorescence (Channel Cycling A.530/585hp)", "setting": "cycle 58, + glucose", "value": 4.404}, {"measurement": "EtBr fluorescence (Channel Cycling A.530/585hp)", "setting": "cycle 58, without glucose", "value": 8.904}, {"measurement": "EtBr fluorescence (Channel Cycling A.530/585hp)", "setting": "cycle 59, + glucose", "value": 4.331}, {"measurement": "EtBr fluorescence (Channel Cycling A.530/585hp)", "setting": "cycle 59, without glucose", "value": 9.036}, {"measurement": "EtBr fluorescence (Channel Cycling A.530/585hp)", "setting": "cycle 60, + glucose", "value": 4.366}, {"measurement": "EtBr fluorescence (Channel Cycling A.530/585hp)", "setting": "cycle 60, without glucose", "value": 8.8341}, {"measurement": "EtBr fluorescence (Channel Cycling A.530/585hp)", "setting": "cycle 61, + glucose", "value": 4.262}, {"measurement": "EtBr fluorescence (Channel Cycling A.530/585hp)", "setting": "cycle 61, without glucose", "value": 8.869}]}]}
